Molecules are shown by their SMILES. Certain results were filed several times, with different values. Only these are listed. The source may hold further records. The records of an entry do not match, cause unknown; dose, time, organism, isomer or construct need not be as stated for each record.

The test system of the assay is BtOBP1-8 genes. The assay can be described thus: Transcriptional response of BtOBP1-8 to neophytadiene (qRT-PCR). As to conditions: Fig 7A. The protocol: RNA was extracted using trizol reagent (Invitrogen, Waltham USA) and dissolved in double‐deionized water; cDNA was synthesized from total RNA (1 µg) using HiScript 1st Strand cDNA Synthesis kit (Vazyme, Nanjing China). Real‐time qPCR was conducted using the MonAmp SYBR Green qPCR Mix (Thermofisher, Waltham USA). Actin and UBI were selected as the housekeeping genes (Table S1, Supporting Information). Each experiment was repeated at least three times and relative gene expression levels calculated for analysis using the 2^−∆∆Ct method.
To investigate the expression profiles of BtOBP1‐8 genes in B. tabaci under neophytadiene treatment, the following experiment was performed. Tomato plants with an identical growth cycle were selected as the treatment group (sprayed with 3 µg g^−1 neophytadiene) and the control group (treated with water only). The treated plants were then placed in a 10 L hermetic container. Once the volatilization reached equilibrium, 500 pairs of adults were introduced into the closed container and fumigated under airtight conditions. Subsequently, the whiteflies were sampled at distinct time points (0, 24, 48, 72, 96 h) respectively for the determination of expression levels.

`C=CC(=C)CCCC(C)CCCC(C)CCCC(C)C` (centres unmarked) [Neophytadiene]: for the setting “24h”, the OBP6 relative expression is on record as 0.3158, 0.7629, 0.6354 and the OBP8 relative expression is 0.804, 0.4233, 0.117. Further, for the setting “48h”, the OBP5 relative expression is 1.717 and 0.72; the OBP6 relative expression is recorded as 0.1156, 0.2913, 0.2172; the OBP8 relative expression was 0.08092, 0.185, 0.2953. Besides, under “72h”, the OBP1 relative expression is 0.3631, 0.3821, 0.8787; the OBP2 relative expression is 6.04, 4.95, 2.53; the OBP3 relative expression is on record as 1.49, 3.64, 2.29; the OBP5 relative expression was 1.327, 0.964, 0.5766. Further, where the note is “72h”, the OBP7 relative expression is reported as 0.02778, 0.1077, 0.03582 and the OBP8 relative expression is reported as 0.9037, 0.2535, 0.7951. Also, under “96h”, the OBP1 relative expression was 1.472, 0.5918, 0.9874; the OBP2 relative expression is 5.89, 6.05, 2.96; the OBP5 relative expression is 1.738, 1.309, 0.7564.

Values taken from PMC12165043, “Neophytadiene, a Plant Specialized Metabolite, Mediates the Virus‐Vector‐Plant Tripartite Interactions” (Advanced Science, 2025).
